# Some of the results follow. Many values rest on one well or one pass, so single values are uncertain.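 Imaging used 1,536-well plates; nuclei positive for cleaved PARP by antibody were divided by total DNA-stained nuclei to yield the apoptosis fraction. Doses for screening kept most cells viable, and cell lines differ markedly in resting and induced cleaved-PARP levels.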
# Key:
# Experiment in all cases: cleaved PARP positive nuclei fraction relative to DMSO control; melanoma cells; higher = more apoptosis
# Settings in all cases: library dose: low library concentration; 72 h
# MZ2-MEL = test system: MZ2-MEL
# MeWo = test system: MeWo
# RPMI7951 = test system: RPMI7951
# RVH-421 = test system: RVH-421
# SkMel28 = test system: SkMel28
# SkMel2 = test system: SkMel2
# SkMel30 = test system: SkMel30
# UACC62 = test system: UACC62
# WM115 = test system: WM115
# WM1716 = test system: WM1716
# WM1745 = test system: WM1745
# WM3526 = test system: WM3526
# WM3619 = test system: WM3619
# WM451Lu = test system: WM451Lu
Compound,cleaved PARP positive nuclei fraction (MZ2-MEL) [%],cleaved PARP positive nuclei fraction (MeWo) [%],cleaved PARP positive nuclei fraction (RPMI7951) [%],cleaved PARP positive nuclei fraction (RVH-421) [%],cleaved PARP positive nuclei fraction (SkMel28) [%],cleaved PARP positive nuclei fraction (SkMel2) [%],cleaved PARP positive nuclei fraction (SkMel30) [%],cleaved PARP positive nuclei fraction (UACC62) [%],cleaved PARP positive nuclei fraction (WM115) [%],cleaved PARP positive nuclei fraction (WM1716) [%],cleaved PARP positive nuclei fraction (WM1745) [%],cleaved PARP positive nuclei fraction (WM3526) [%],cleaved PARP positive nuclei fraction (WM3619) [%],cleaved PARP positive nuclei fraction (WM451Lu) [%]
"C=C(c1ccc(C(=O)O)cc1)c1cc2c(cc1C)C(C)(C)CCC2(C)C [Bexarotene] + COCC[n+]1c2c(n(Cc3cnccn3)c1C)C(=O)c1ccccc1C2=O [YM155] (first compound 2 µM, partner dose 0.0004 µM)",220,51.3,188,177,287,108,114,52.7,38.9,123,278,188,83.8,45.6
"C[C@@H](Oc1cc(-c2cnn(C3CCNCC3)c2)cnc1N)c1c(Cl)ccc(F)c1Cl [Crizotinib] + Nc1ccn([C@@H]2O[C@H](CO)[C@@H](O)C2(F)F)c(=O)n1 [gemcitabine] (first compound 0.2 µM, partner dose 0.0004 µM)",114,32.4,135,89.5,69.9,67.4,47.3,168,97.7,131,98.8,34.9,107,108
"CN1CCN(c2ccc3nc(-c4c(N)c5c(F)cccc5[nH]c4=O)[nH]c3c2)CC1 [Dovitinib] + COc1ccc(Cl)c(Nc2nc3ccccc3nc2NS(=O)(=O)c2cccc(NC(=O)C(C)(C)N)c2)c1 [XL147] (first compound 0.1 µM, partner dose 0.8 µM)",118,82.8,60.7,44.1,75.3,161,425,121,34.9,135,243,27,115,77.3
"C[C@@H](Oc1cc(-c2cnn(C3CCNCC3)c2)cnc1N)c1c(Cl)ccc(F)c1Cl [Crizotinib] + O=C(O)[C@@H]1[O][Sb](=[O])([O][Sb]2(=[O])[O][C@H]([C@H](O)CO)[C@H](O)[C@H](C(=O)O)[O]2)[O][C@H]([C@H](O)CO)[C@@H]1O [stibogluconate] (first compound 0.2 µM, partner dose 2 µM)",92.8,110,216,119,238,34.5,253,137,65.5,122,83.1,86.2,93.1,89.3
"CNC(=O)c1cc(Oc2ccc(NC(=O)Nc3ccc(Cl)c(C(F)(F)F)c3)cc2)ccn1 [sorafenib] + C=C(c1ccc(C(=O)O)cc1)c1cc2c(cc1C)C(C)(C)CCC2(C)C [Bexarotene] (first compound 0.4 µM, partner dose 2 µM)",107,72.2,145,105,57.9,103,75.2,31.4,32.8,114,110,62.2,85.3,117
"O=C(O)c1ccc2c(c1)nc(Nc1cccc(Cl)c1)c1ccncc12 + Nc1ccn([C@@H]2O[C@H](CO)[C@@H](O)C2(F)F)c(=O)n1 [gemcitabine] (first compound 0.4 µM, partner dose 0.0004 µM)",163,100,214,115,32.3,113,98.7,56.7,137,81.3,100,75.1,142,44.7
"Nc1nc(F)nc2c1ncn2[C@@H]1O[C@H](CO)[C@@H](O)[C@@H]1O [fludarabine] + Nc1ncn([C@H]2C[C@H](O)[C@@H](CO)O2)c(=O)n1 [decitabine] (first compound 0.2 µM, partner dose 0.1 µM)",70.9,1390,147,125,263,701,1490,250,256,84.4,90.3,276,99.8,762
"CN1CCN(c2ccc3nc(-c4c(N)c5c(F)cccc5[nH]c4=O)[nH]c3c2)CC1 [Dovitinib] + O=C(O)c1ccc2c(c1)nc(Nc1cccc(Cl)c1)c1ccncc12 [CX4945] (first compound 0.1 µM, partner dose 0.4 µM)",241,185,202,105,535,36.6,317,88.9,170,62.4,115,154,99.8,47.7
"C[C@@H](Oc1cc(-c2cnn(C3CCNCC3)c2)cnc1N)c1c(Cl)ccc(F)c1Cl [Crizotinib] + Cn1c(Nc2ccc(C(F)(F)F)cc2)nc2cc(Oc3ccnc(-c4ncc(C(F)(F)F)[nH]4)c3)ccc21 [CHIR265] (first compound 0.2 µM, partner dose 0.08 µM)",104,153,47.5,133,106,375,48.2,280,334,80.7,119,27.5,107,20.6
"Nc1ccn([C@@H]2O[C@H](CO)[C@@H](O)C2(F)F)c(=O)n1 [gemcitabine] + CCCS(=O)(=O)Nc1ccc(F)c(C(=O)c2c[nH]c3ncc(Cl)cc23)c1F [PLX4720] (first compound 0.0004 µM, partner dose 0.08 µM)",139,79.9,73,130,90.6,77.5,76.9,224,117,60,107,203,229,191
"Cn1c(=O)n(-c2ccc(C(C)(C)C#N)cc2)c2c3cc(-c4cnc5ccccc5c4)ccc3ncc21 + Cc1nc(Nc2ncc(C(=O)Nc3c(C)cccc3Cl)s2)cc(N2CCN(CCO)CC2)n1 [dasatanib] (first compound 0.004 µM, partner dose 0.004 µM)",53.3,84.7,147,105,101,49.9,108,123,173,91.1,121,117,102,125
"CN1CCN(c2ccc3nc(-c4c(N)c5c(F)cccc5[nH]c4=O)[nH]c3c2)CC1 [Dovitinib] + O=C(O)[C@@H]1[O][Sb](=[O])([O][Sb]2(=[O])[O][C@H]([C@H](O)CO)[C@H](O)[C@H](C(=O)O)[O]2)[O][C@H]([C@H](O)CO)[C@@H]1O [stibogluconate] (first compound 0.1 µM, partner dose 2 µM)",147,74.7,146,31.2,86,54.8,164,133,229,174,98.1,21.5,80.2,34.8
"O=C(O)[C@@H]1[O][Sb](=[O])([O][Sb]2(=[O])[O][C@H]([C@H](O)CO)[C@H](O)[C@H](C(=O)O)[O]2)[O][C@H]([C@H](O)CO)[C@@H]1O (some centres not stated) [stibogluconate] + COc1ccc(Cl)c(Nc2nc3ccccc3nc2NS(=O)(=O)c2cccc(NC(=O)C(C)(C)N)c2)c1 [XL147] (first compound 2 µM, partner dose 0.8 µM)",130,159,64.4,153,146,163,14.3,54.7,121,196,99.7,53.9,82.2,48.9
"Cn1c(=O)n(-c2ccc(C(C)(C)C#N)cc2)c2c3cc(-c4cnc5ccccc5c4)ccc3ncc21 + CC(C)C[C@H](NC(=O)[C@H](Cc1ccccc1)NC(=O)c1cnccn1)B(O)O [Bortezomib] (first compound 0.004 µM, partner dose 0.001 µM)",54.2,135,111,101,47.8,101,78.3,151,106,114,104,46.4,291,91.2
"CC(C)C[C@H](NC(=O)[C@H](Cc1ccccc1)NC(=O)c1cnccn1)B(O)O [Bortezomib] + Cn1c(Nc2ccc(C(F)(F)F)cc2)nc2cc(Oc3ccnc(-c4ncc(C(F)(F)F)[nH]4)c3)ccc21 [CHIR265] (first compound 0.001 µM, partner dose 0.08 µM)",326,149,71.6,366,116,137,214,354,200,624,282,83.8,1280,115
"CCCS(=O)(=O)Nc1ccc(F)c(C(=O)c2c[nH]c3ncc(Cl)cc23)c1F + C[C@]1(c2nc3c(C(N)=O)cccc3[nH]2)CCCN1 [Veliparib] (first compound 0.08 µM, partner dose 1.4 µM)",154,51.3,98,128,66.5,54.7,179,168,145,148,109,104,99.6,70.3
"Nc1ncn([C@H]2C[C@H](O)[C@@H](CO)O2)c(=O)n1 [decitabine] + CC(=O)c1c(C)c2cnc(Nc3ccc(N4CCNCC4)cn3)nc2n(C2CCCC2)c1=O [palbociclib] (first compound 0.1 µM, partner dose 0.04 µM)",25.9,69.8,157,85.2,68.8,37.4,112,139,95.3,110,124,72.3,110,52.7
"O=C(O)[C@@H]1[O][Sb](=[O])([O][Sb]2(=[O])[O][C@H]([C@H](O)CO)[C@H](O)[C@H](C(=O)O)[O]2)[O][C@H]([C@H](O)CO)[C@@H]1O (some centres not stated) [stibogluconate] + COCC[n+]1c2c(n(Cc3cnccn3)c1C)C(=O)c1ccccc1C2=O [YM155] (first compound 2 µM, partner dose 0.0004 µM)",159,71.5,57.8,108,48.5,108,82.9,33.4,90.8,232,91.8,125,88,25.4

# Reprinted from the entries so far for reference:
Compound,cleaved PARP positive nuclei fraction (MZ2-MEL) [%],cleaved PARP positive nuclei fraction (MeWo) [%],cleaved PARP positive nuclei fraction (RPMI7951) [%],cleaved PARP positive nuclei fraction (RVH-421) [%],cleaved PARP positive nuclei fraction (SkMel28) [%],cleaved PARP positive nuclei fraction (SkMel2) [%],cleaved PARP positive nuclei fraction (SkMel30) [%],cleaved PARP positive nuclei fraction (UACC62) [%],cleaved PARP positive nuclei fraction (WM115) [%],cleaved PARP positive nuclei fraction (WM1716) [%],cleaved PARP positive nuclei fraction (WM1745) [%],cleaved PARP positive nuclei fraction (WM3526) [%],cleaved PARP positive nuclei fraction (WM3619) [%],cleaved PARP positive nuclei fraction (WM451Lu) [%]
"CN1CCN(c2ccc3nc(-c4c(N)c5c(F)cccc5[nH]c4=O)[nH]c3c2)CC1 [Dovitinib] + O=C(O)[C@@H]1[O][Sb](=[O])([O][Sb]2(=[O])[O][C@H]([C@H](O)CO)[C@H](O)[C@H](C(=O)O)[O]2)[O][C@H]([C@H](O)CO)[C@@H]1O [stibogluconate] (first compound 0.1 µM, partner dose 2 µM)",147,74.7,146,31.2,86,54.8,164,133,229,174,98.1,21.5,80.2,34.8
"O=C(O)[C@@H]1[O][Sb](=[O])([O][Sb]2(=[O])[O][C@H]([C@H](O)CO)[C@H](O)[C@H](C(=O)O)[O]2)[O][C@H]([C@H](O)CO)[C@@H]1O (some centres not stated) [stibogluconate] + COc1ccc(Cl)c(Nc2nc3ccccc3nc2NS(=O)(=O)c2cccc(NC(=O)C(C)(C)N)c2)c1 [XL147] (first compound 2 µM, partner dose 0.8 µM)",130,159,64.4,153,146,163,14.3,54.7,121,196,99.7,53.9,82.2,48.9
"Cn1c(=O)n(-c2ccc(C(C)(C)C#N)cc2)c2c3cc(-c4cnc5ccccc5c4)ccc3ncc21 + CC(C)C[C@H](NC(=O)[C@H](Cc1ccccc1)NC(=O)c1cnccn1)B(O)O [Bortezomib] (first compound 0.004 µM, partner dose 0.001 µM)",54.2,135,111,101,47.8,101,78.3,151,106,114,104,46.4,291,91.2
"CC(C)C[C@H](NC(=O)[C@H](Cc1ccccc1)NC(=O)c1cnccn1)B(O)O [Bortezomib] + Cn1c(Nc2ccc(C(F)(F)F)cc2)nc2cc(Oc3ccnc(-c4ncc(C(F)(F)F)[nH]4)c3)ccc21 [CHIR265] (first compound 0.001 µM, partner dose 0.08 µM)",326,149,71.6,366,116,137,214,354,200,624,282,83.8,1280,115

# From the supplement of paper PMC4604168 (melanoma cell lines)
